Source: PubChem BioAssay AID977622 (Broad Institute, 2014)
The list shows a part of the results. The main result of the screen is listed elsewhere. These columns were measured beside it and carry no call.

Key:
[1] = growth inhibition of wild-type GFP E. coli, dose response, h38 mutant RFP, cherry-pick (AID 977622); details: E. coli mixed culture, 24 h, total growth OD600 at 50 uM
[2] = test system: E. coli h38 humanized mutant ribosome RFP fluorescence, mixed culture, 24 h; test: as above; details: h38 mutant RFP at 50 uM

| Compound | activity change [1] | activity change [2] |
| --- | --- | --- |
| Nc1[nH]c(C(=O)c2ccccc2)c(-c2ccc(Br)cc2)c1C(=O)c1cccs1 | -33.7% | 9.39% |
| C[C@H]1CCCCO[C@@H](CN(C)C)[C@@H](C)CN([C@@H](C)CO)C(=O)c2cc(NC(=O)Nc3cccc4ccccc34)ccc2O1 | -0.43% | -9.39% |
| COc1cccc(-n2nnnc2SCC(=O)NCc2ccc3c(c2)OCO3)c1 | -33.9% | 12.1% |
| Cc1ccnc(NS(=O)(=O)c2ccc(NC(=O)c3ccc4c(c3)OCCO4)cc2)n1 | -28.9% | 7.81% |
| CCOC(=O)c1sc(NC(=O)CN2CCN(c3ccccc3)CC2)nc1C | -34.5% | -24.8% |
| C[C@H](NC(=O)C[C@@H]1C[C@@H]2c3cc(NS(=O)(=O)c4ccc(F)cc4)ccc3O[C@@H]2[C@@H](CO)O1)c1ccccc1 | -24% | 2.72% |
| Cc1ccc(OCC(O)CN2CCN(c3ccccn3)CC2)c(C)c1 (stereo unspecified) | -56.3% | -12.1% |
| CCNc1nc(N)c(C(=O)C23CC4CC(CC(C4)C2)C3)s1 | -10.3% | -13.8% |
| COc1ccc(C(=O)NCCc2ccccn2)cc1S(=O)(=O)Nc1ccc(Br)cc1 | -32.3% | -30.3% |
| Cc1cc(NC(=O)c2cccc(Oc3ccccc3)c2)n[nH]1 | -54.2% | 20.5% |
| COc1ccc(CN(CC(O)COCc2ccccc2)S(=O)(=O)c2ccccc2Br)cc1OC (stereo unspecified) | -72.6% | 10.9% |
| COc1ccc(NC(=O)CN(C)C(=O)c2cc(C3CC3)nn2-c2ccccc2)cc1 | -14% | 0.855% |
| Cc1cc(NC(=O)CCN2C(=O)C3C4C=CC(C4)C3C2=O)ccc1Br (stereo unspecified) | -19% |  |
| Cc1ccccc1-c1ccc([C@@H]2[C@@H](CO)N3CCCCN(C(=O)Nc4ccc(F)cc4)C[C@@H]23)cc1 | -63.4% | 3.49% |
| COc1ccc(NC(=O)Nc2cccc3c2O[C@H](CN(C)S(=O)(=O)c2ccc(Cl)cc2)[C@@H](C)CN([C@H](C)CO)C3=O)cc1 | -52.5% | -0.134% |
| COC(=O)COc1ccc(S(=O)(=O)N2CCc3ccccc3C2)cc1C | -29.7% |  |
| O=C(Nc1cccc(S(=O)(=O)N2CCCCC2)c1)c1ccc(Cl)nc1 | -25.5% | -12.2% |
| COc1cc(CN2CC(=O)N(c3ccccc3Cl)C2=S)cc(OC)c1OC | -37% | 12.5% |
| CCN(CC)CCn1c(SCC(=O)Nc2cccc(OC)c2)nc2c(sc3ccccc32)c1=O | -57.4% | -16.6% |
| COc1ccccc1CC(=O)NCCc1c[nH]c2ccccc12 | -7.73% | 7.6% |
| COC(=O)c1cc2c(c3c4cc(OC)ccc4n(C(=O)c4ccccc4)c13)C(=O)N(Cc1ccco1)C2 | -9.88% | -39.2% |

| Compound | activity change [1] | activity change [2] |
| --- | --- | --- |
| O=C(c1cccs1)c1c[nH]cc1-c1ccccc1 | -13.5% | -29.7% |
| O=C(NCc1ccccc1)C1C(=O)Nc2ccccc2C(=O)N1c1ccc2c(c1)OCCO2 (stereo unspecified) | -7.47% | -1.93% |
| Cc1ccc(C(=O)Nc2ccc(C)c(S(=O)(=O)Nc3ccccc3Cl)c2)s1 | -64.9% | 3.4% |
| CC1CC(C)CN(C(=O)c2ccc(-c3ccc([N+](=O)[O-])cc3)o2)C1 (stereo unspecified) | -80.1% |  |
| Cc1cc(NC(=O)CS(=O)(=O)c2cn(Cc3cccc(Br)c3)c3ccccc23)no1 | -48.6% | -17.8% |
| COc1cccc(C(=O)NC(C)c2ccc(Br)cc2)c1 (stereo unspecified) | -20.9% |  |
| Brc1ccc(-c2nc3c4ccccc4ccn3c2Cc2ccccc2)cc1 | 8.63% | 10.1% |
| COCc1nnc(NC(=O)c2ccc(S(=O)(=O)N3CCCC3)cc2)o1 | -13.7% | 9.94% |
| Cc1cccc(N2CCN(Cc3nc(-c4ccc(F)cc4F)oc3C)CC2)n1 | -15.6% |  |
| CN1CCN(C(=O)C[C@@H]2CC[C@H]3[C@@H](COC[C@H](O)CN3C(=O)Nc3ccc(Cl)cc3)O2)CC1 | -79.1% | 0.446% |
| CC1Sc2ccc(S(=O)(=O)NCc3ccccc3)cc2NC1=O (stereo unspecified) | -26.7% |  |
| C[C@H](CO)N1C[C@H](C)[C@H](CN(C)C(=O)CCCN(C)C)OCCCC[C@H](C)Oc2ccc(NC(=O)Nc3cccc4ccccc34)cc2C1=O | 1.4% | 26.2% |
| Cc1cccc(NC(=O)c2c(C)nn(-c3ccccc3)c2Cl)c1 | -35.6% |  |
| NS(=O)(=O)c1cccc(NC(=O)CSc2nc3ccc(Cl)cc3[nH]2)c1 | -53.8% |  |
| COc1ccc(-c2cc(C(=O)N(C)CCc3ccc(OC)c(OC)c3)c3ccccc3n2)cc1 | -29.6% |  |
| COC(=O)c1cc2c(c3c4cc(F)ccc4n(S(=O)(=O)c4ccccc4)c13)C(=O)N(Cc1ccco1)C2 | -16.9% | 6.04% |
| O=C(NCCc1ccc(O)cc1)c1[nH]c(C(F)(F)F)nc1-c1ccccc1 | -15.1% | -2.42% |
| O=C(Nc1cccc(Cl)c1)N1C[C@@H]2[C@H](c3ccccc31)[C@H](CO)N2Cc1ccncc1 | -14.8% | -0.299% |
| CC(OC(=O)CCc1nc2ccccc2c(=O)[nH]1)C(=O)c1ccc(Br)cc1 (stereo unspecified) | -18% | -9.52% |
| COc1ccc(-c2n[nH]c3c2CN(C(=O)c2ccc(F)cc2)CC3)cc1 | -36.3% | -20.8% |
| NS(=O)(=O)c1ccc(Nc2c([N+](=O)[O-])cncc2[N+](=O)[O-])cc1 | -11.1% | 11.2% |

| Compound | activity change [1] | activity change [2] |
| --- | --- | --- |
| CC(C)NC(=O)N(C)C[C@H]1OCCCC[C@@H](C)Oc2ccc(NC(=O)c3ccccc3)cc2C(=O)N([C@@H](C)CO)C[C@H]1C | -3.26% | 12.4% |
| CSc1c(-c2ccccn2)c(N)nn1C(=O)C1CC1 | -40.7% |  |
| Cc1ccc(-c2nnc(N3CCN(C(=O)COc4cccc(C)c4)CC3)c3ccccc23)cc1 | -30.3% | -36.4% |
| CN(c1ccccc1)S(=O)(=O)c1cccc(NC(=O)CCNC(=O)c2ccc([N+](=O)[O-])cc2)c1 | -3.04% | -10.7% |
| O=C1N[C@@H](Cc2ccccc2)COC(=O)[C@H](Cc2ccc(F)cc2)C/C=C\C[C@H]1CC(=O)N(CCO)Cc1ccccc1 | -32% | 36.3% |
| Cc1ccccc1-c1cc(C(=O)NCc2cccs2)n(CC2CC(c3cccnc3)=NO2)n1 (stereo unspecified) | -27.4% | -11.6% |
| Cc1cc(F)ccc1-c1cc(C(=O)NCC2CCCCC2)[nH]n1 | -54.7% | -38.3% |
| O=C1Nc2ccc(F)cc2C12Nc1ccccc1-c1nnc(SCc3ccccc3)nc1O2 (stereo unspecified) | -10.9% | -8.34% |
| COc1ccc(OC)c(NC(=O)COC(=O)C2CCN(C(=O)c3ccc(Cl)cc3)CC2)c1 | -18.1% | -16% |
| C=CCNC(=O)c1ccccc1NC(=O)c1ccc(Cl)c(S(=O)(=O)Nc2cccc(C)c2C)c1 | -84.4% | -55.5% |
| O=C(CN1CC[n+]2c(-c3cccs3)csc21)c1ccc(-c2ccccc2)cc1 | -48.5% | 5.26% |
| Cc1nnc2sc(SCC(=O)Nc3ccc(Br)cc3)nn2c1=O | -28.3% | -9.41% |
| CN(C)c1ccc(-c2nnn(Cc3ccccc3Br)n2)cc1 | -46% | 1.11% |
| C=CCn1c(C)cc(C(=O)COC(=O)CNC(=O)c2ccccc2)c1C | -52.8% | 7.47% |
| O=C1CN(C(=O)c2ccc(Cl)c(S(=O)(=O)N3CCc4ccccc43)c2)c2ccccc2N1 | -39.9% | -11.1% |
| COc1ccc(OC)c(C(=O)COC(=O)c2ccc([N+](=O)[O-])o2)c1 | -23.6% | -3.47% |
| Cc1cccc(C)c1NC(=O)CNC(=O)C(C)N1CCN(c2cccc(Cl)c2)CC1 (stereo unspecified) | -27% |  |
| Cc1cccc(NC(=O)CN(C)S(=O)(=O)c2cccs2)c1 | -4.33% | -12.4% |
| COc1ccc(C#Cc2ccc3c(c2)[C@@H]2[C@@H](CCN2Cc2nccs2)[C@@H](CO)N3)cc1 | -31.9% | 23.3% |
| O=C(NCc1cccnc1)C1CCN(S(=O)(=O)c2cc([N+](=O)[O-])ccc2Cl)CC1 | -8.66% | 9.4% |
| O=C(c1ccco1)c1nnn(Cc2ccccc2)c1-c1ccccc1 | -49.4% |  |

| Compound | activity change [1] | activity change [2] |
| --- | --- | --- |
| NS(=O)(=O)c1cccc(NC(=O)COc2ncnc3c2cnn3-c2ccccc2)c1 | -10.8% | -13.1% |
| COc1cccc(S(=O)(=O)N2CCCCN3[C@H](CO)[C@H](c4ccc(C#CC(C)C)cc4)[C@H]3C2)c1 | -95.8% | -64.4% |
| COc1ccc(OCC(=O)N2c3ccccc3CC2C)c([N+](=O)[O-])c1 (stereo unspecified) | -22.7% | -18% |
| NS(=O)(=O)c1cccc(NC(=O)c2cccc(-c3ccc(O)cc3)c2)c1 | -48.9% |  |
| C[C@@H]1CCCCO[C@@H](CN(C)C)[C@H](C)CN([C@@H](C)CO)C(=O)c2cc(NC(=O)Nc3cccc4ccccc34)ccc2O1 | -11% | -3.92% |
| Cc1ccc(NCCCn2cnc3c(OCc4ccccc4)ncnc32)cc1C | -20.5% | -2.44% |
| Cc1ccc(C(=O)Nc2ccc3ncccc3c2)cc1 | -14.2% | -7.12% |
| O=C(NCCc1csc(-c2ccccc2)n1)c1ccccc1F | -41.4% | -24.2% |
| Cc1c(C(=O)O)oc2ccc(S(=O)(=O)NC3CCCCCCC3)cc12 | -39% |  |
| c1ccc(-c2nc(-c3cccnc3)cs2)cc1 | -16.4% | -7.12% |
| Cc1ncoc1C(=O)NCCC(c1ccccc1)c1ccccc1 | -26.9% | -32.4% |
| COC(=O)c1c(NC(=O)CCC(=O)O)sc(Cc2ccccc2)c1C | -67.8% |  |
| CC(C)(C)c1ccc2c(c1)C(c1ccc3c(c1)OCO3)CC(=O)O2 (stereo unspecified) |  | -23.1% |
| Cc1nc(C)c(-c2ccn(S(=O)(=O)c3ccc(Cl)cc3)n2)o1 | -47.4% |  |
| O=C1C(c2ccccc2)c2ccccc2N1Cc1ccccc1 (stereo unspecified) | -40.4% | -17.3% |
| CN(Cc1ccc(Cl)s1)C(=O)CNC(=O)CNC(=O)c1ccc(Cl)cc1Cl | -39.4% | 9.3% |
| O=C(C[C@H]1CC[C@H](NC(=O)Nc2ccccc2F)[C@H](CO)O1)NCc1ccc(-c2ccccc2)cc1 | -15.9% | -3.88% |
| COc1ccc(OC)c(Nc2nc(N)c([N+](=O)[O-])c(N3CCOCC3)n2)c1 | -17.8% | -9.94% |
| CC1(C(=O)NS(=O)(=O)c2cccs2)CCN1C(=O)C1(c2ccc(Cl)cc2)CCC1 (stereo unspecified) | -5.17% | -13.6% |
| CS(=O)(=O)NCCSc1cc(C(F)(F)F)nc2ccccc12 | -46.4% | 14.1% |
| O=C(Nc1ccccc1Cl)N1C[C@H]2[C@@H](c3ccccc31)[C@@H](CO)N2Cc1ccccc1 | -90.5% | 10.5% |

Laid out differently: results already given.
Compound,activity change [1],activity change [2]
O=C(Nc1cccc(S(=O)(=O)N2CCCCC2)c1)c1ccc(Cl)nc1,-25.5%,-12.2%
CCN(CC)CCn1c(SCC(=O)Nc2cccc(OC)c2)nc2c(sc3ccccc32)c1=O,-57.4%,-16.6%
COC(=O)c1cc2c(c3c4cc(OC)ccc4n(C(=O)c4ccccc4)c13)C(=O)N(Cc1ccco1)C2,-9.88%,-39.2%
COCc1nnc(NC(=O)c2ccc(S(=O)(=O)N3CCCC3)cc2)o1,-13.7%,9.94%
CN1CCN(C(=O)C[C@@H]2CC[C@H]3[C@@H](COC[C@H](O)CN3C(=O)Nc3ccc(Cl)cc3)O2)CC1,-79.1%,0.446%
Cc1cccc(NC(=O)c2c(C)nn(-c3ccccc3)c2Cl)c1,-35.6%,
COc1ccc(-c2cc(C(=O)N(C)CCc3ccc(OC)c(OC)c3)c3ccccc3n2)cc1,-29.6%,
COC(=O)c1cc2c(c3c4cc(F)ccc4n(S(=O)(=O)c4ccccc4)c13)C(=O)N(Cc1ccco1)C2,-16.9%,6.04%
CC(OC(=O)CCc1nc2ccccc2c(=O)[nH]1)C(=O)c1ccc(Br)cc1 (stereo unspecified),-18%,-9.52%
COc1ccc(-c2n[nH]c3c2CN(C(=O)c2ccc(F)cc2)CC3)cc1,-36.3%,-20.8%
NS(=O)(=O)c1ccc(Nc2c([N+](=O)[O-])cncc2[N+](=O)[O-])cc1,-11.1%,11.2%
Cc1ccc(-c2nnc(N3CCN(C(=O)COc4cccc(C)c4)CC3)c3ccccc23)cc1,-30.3%,-36.4%
CN(c1ccccc1)S(=O)(=O)c1cccc(NC(=O)CCNC(=O)c2ccc([N+](=O)[O-])cc2)c1,-3.04%,-10.7%
O=C1N[C@@H](Cc2ccccc2)COC(=O)[C@H](Cc2ccc(F)cc2)C/C=C\C[C@H]1CC(=O)N(CCO)Cc1ccccc1,-32%,36.3%
C=CCNC(=O)c1ccccc1NC(=O)c1ccc(Cl)c(S(=O)(=O)Nc2cccc(C)c2C)c1,-84.4%,-55.5%
NS(=O)(=O)c1cccc(NC(=O)COc2ncnc3c2cnn3-c2ccccc2)c1,-10.8%,-13.1%
COc1ccc(OCC(=O)N2c3ccccc3CC2C)c([N+](=O)[O-])c1 (stereo unspecified),-22.7%,-18%
O=C(NCCc1csc(-c2ccccc2)n1)c1ccccc1F,-41.4%,-24.2%
Cc1ncoc1C(=O)NCCC(c1ccccc1)c1ccccc1,-26.9%,-32.4%
COC(=O)c1c(NC(=O)CCC(=O)O)sc(Cc2ccccc2)c1C,-67.8%,
CC(C)(C)c1ccc2c(c1)C(c1ccc3c(c1)OCO3)CC(=O)O2 (stereo unspecified),,-23.1%
O=C(Nc1ccccc1Cl)N1C[C@H]2[C@@H](c3ccccc31)[C@@H](CO)N2Cc1ccccc1,-90.5%,10.5%

Copied from the list:
In activity change [1], `CCN(CC)CCn1c(SCC(=O)Nc2cccc(OC)c2)nc2c(sc3ccccc32)c1=O` has -57.4%
In activity change [2], `Nc1[nH]c(C(=O)c2ccccc2)c(-c2ccc(Br)cc2)c1C(=O)c1cccs1` has 9.39%
